Measurements: patent US20210047417A1
No constants are given. Whether binding was seen depends on the method and setting. Some entries that bind do so weakly or less than the wild type.

Target: T1, Recombinant MICB protein (UniProt Q29980)
T1 sequence (looked up): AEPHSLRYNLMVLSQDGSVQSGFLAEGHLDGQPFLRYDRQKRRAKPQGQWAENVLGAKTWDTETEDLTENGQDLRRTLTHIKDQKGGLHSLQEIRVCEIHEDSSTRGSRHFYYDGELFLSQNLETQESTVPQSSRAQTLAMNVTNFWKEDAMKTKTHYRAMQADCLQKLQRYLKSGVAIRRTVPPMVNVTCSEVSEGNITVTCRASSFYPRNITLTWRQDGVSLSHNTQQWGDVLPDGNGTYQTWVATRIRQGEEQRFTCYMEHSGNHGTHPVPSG
Experiment: ELISA, antigen coated, PDI-1 0-1 µg/ml (legend of FIG. 2)

B1: Anti-MICA/B Monoclonal Antibody (PDI-1) (antibody, mouse IgG2a, kappa, V domains shown)
VH: QIQLVQSGPELKKSGETVKISCKAFGYTFTNYGMNWVKQAPGKGLKWMGWINTYTGEPTYADDFKGRFAFSLETSASTAYLQINHLKNEDTATYFCARNYGNYLFDYWGQGTTLTVSS
VL: DIQMTQTTSSLSASLGDRVTISCSASQGISNYLNWYQQKPDGTLKLLIQYTSLLHSGVPSRFSGSGSGTEYSLTISNLEPEDIATYFCQQYSKFPRTFGGGTKLEIKR
binding: binds
